The target of the assay is T1, GST-tagged TRF2 WT protein (recombinant TRF2 full length), Q15554.
T1 chain: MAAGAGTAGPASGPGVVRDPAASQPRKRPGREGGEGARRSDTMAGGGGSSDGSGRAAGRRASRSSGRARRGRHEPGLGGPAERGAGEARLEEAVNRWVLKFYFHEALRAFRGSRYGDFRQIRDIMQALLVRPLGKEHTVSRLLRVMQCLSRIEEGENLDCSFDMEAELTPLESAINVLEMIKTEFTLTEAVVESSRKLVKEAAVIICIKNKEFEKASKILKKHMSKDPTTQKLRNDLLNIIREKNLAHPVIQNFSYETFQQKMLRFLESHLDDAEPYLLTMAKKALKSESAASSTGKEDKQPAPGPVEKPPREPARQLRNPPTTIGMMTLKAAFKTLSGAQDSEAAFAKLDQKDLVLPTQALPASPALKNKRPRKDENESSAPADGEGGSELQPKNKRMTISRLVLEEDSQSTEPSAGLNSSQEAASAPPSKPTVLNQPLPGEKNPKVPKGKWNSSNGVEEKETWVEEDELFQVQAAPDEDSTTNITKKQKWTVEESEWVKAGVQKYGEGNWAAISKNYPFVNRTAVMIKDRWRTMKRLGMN
The experiment in a line: pull-down; vitro-vitro: 5 pmol GST-TRF2 with 5 pmol myc-tagged recombinant protein in 1 ml of 20 mM Tris-HCl pH 8, 100 mM KCl, 1 mM EDTA, 0.2% Triton, overnight at 4 °C; Glutathione Sepharose 4B 2 h at RT; five washes; Western blot; both purified. The note with it: remark: other sources report otherwise.

Results are given in words; binding and its absence hold for the method and conditions named. Tags and fused reporters may be left off the sequences shown.

B1: myc-LMNB1 recombinant protein, P20700 1-586 (protein)
chain: MATATPVPPRMGSRAGGPTTPLSPTRLSRLQEKEELRELNDRLAVYIDKVRSLETENSALQLQVTEREEVRGRELTGLKALYETELADARRALDDTARERAKLQIELGKCKAEHDQLLLNYAKKESDLNGAQIKLREYEAALNSKDAALATALGDKKSLEGDLEDLKDQIAQLEASLAAAKKQLADETLLKVDLENRCQSLTEDLEFRKSMYEEEINETRRKHETRLVEVDSGRQIEYEYKLAQALHEMREQHDAQVRLYKEELEQTYHAKLENARLSSEMNTSTVNSAREELMESRMRIESLSSQLSNLQKESRACLERIQELEDLLAKEKDNSRRMLTDKEREMAEIRDQMQQQLNDYEQLLDVKLALDMEISAYRKLLEGEEERLKLSPSPSSRVTVSRASSSRSVRTTRGKRKRVDVEESEASSSVSISHSASATGNVCIEEIDVDGKFIRLKNTSEQDQPMGGWEMIRKIGDTSVSYKYTSRYVLKAGQTVTIWAANAGVTASPPTDLIWKNQNSWGTGEDVKVILKNSQGEEVAQRSTVFKTTIPEEEEEEEEAAGVVVEEELFHQQGTPRASNRSCAIM
Regarding B1, the binding result was “no binding (tested: 5 pmol of each protein in 1 ml)”.

Values taken from paper PMC11955551.
